Out of some 320,000 compounds screened, about 2,100 (0.66%) were called active. Inconclusive results, whose numbers are uncertain, are shown with a selection of clear calls. The call rests on the fitted dose curve; in most records, active means well fitted inhibition curve with a large enough effect in the signal ratio, with a control signal flat (not every such curve was filed as active); inconclusive means small, poorly fitted or top-dose-only effect, or effect the other way, or a change in a side signal; inactive means flat fitted curve, though single readings scatter; the % refers to the signal ratio. Potencies of inconclusive entries are doubtful fits and often do not repeat.
Assay: qHTS Assay for Lipid Storage Modulators in Drosophila S3 Cells
Conditions: BODIPY lipid droplet fluorescence, 18-24 h, cells fed with added oleic acid; lipid storage change, negative = inhibition: at 46.1 µM (top of the series) unless noted
Outline: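 Drosophila S3 cells got compounds at several concentrations plus oleic acid (400 uM solution). Laser-scanning cytometry with 488 nm excitation read lipid droplets at 500-530 nm and cells at 575-640 nm. Percent activity was relative to 20 uM Triacsin C.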
On the % scale 0 is the no-effect control and ±100 the full control effect; potency means the concentration at half of the fitted maximal effect.

SMILES | lipid storage change, negative = inhibition | Potency
CCCCn1c(=O)c(C(=O)OCC)c(O)c2ccccc21 | inconclusive: -13.8% | 
O=C(CCOc1ccccc1)NCC(c1ccco1)N1CCCCC1 (stereo not drawn) | inconclusive: -24.6% | 
CCN1CCN(C(=O)C2CCN(Cc3nc(-c4cccc(Cl)c4)oc3C)CC2)CC1 | inconclusive: 67.9% | 
C[C@@H]1C=C(C(=O)NCc2nc3ccccc3[nH]2)O[C@H](OCc2ccc(CO)cc2)C1 | inconclusive: 19.4% | 
COCCNC(=O)Cc1c(C)c2cc3c(cc2oc1=O)OC(C)(C)CC3 | inconclusive: -23.1% | 
OCCN1CCN(CC(O)COCC2COc3ccccc3O2)CC1 (stereo not drawn) | inconclusive: -37.4% | 
O=C(CN1CCN(c2ccccc2O)CC1)NC(=O)NC1CCCC1 |  | inconclusive: 0.0046 µM [falling, full curve, poor fit]
CC(C)CCN1C(=O)C2(OCCCO2)c2cc(Cl)ccc21 |  | inconclusive: 29.1 µM [activator, single point]
O=c1[nH][nH]c(C(F)(F)F)c1C=NCc1ccc(Cl)cc1 |  | inconclusive: 16.4 µM [activator, partial curve]
CCCCN(C(=O)CSc1cc(C)c2ccc(OC)cc2n1)c1c(N)n(Cc2ccccc2)c(=O)[nH]c1=O | inconclusive: -22.6% | 
CCCCOc1ccc(C(=O)CCN2CCCCC2)cc1 |  | inconclusive: 16.4 µM [falling, partial curve, poor fit]
COc1ccc(N/N=C(/C#N)S(=O)(=O)C(C)(C)C)cc1 | inconclusive: 23.1% | 
COc1ccc(NC(=O)C2CCN(c3cnccn3)CC2)cc1OC | inconclusive: 17.8% | 
CCC(=O)N1CCN(CCN=CC2=C(O)CC(c3cccs3)CC2=O)CC1 (stereo not drawn) | inconclusive: -14.1% | 
O=C(N/N=C/c1ccccc1OC(F)F)NC1CCCCC1 | inconclusive: -1.81% | 
Cc1ccc(C(=O)NNC(=O)c2ccc(S(=O)(=O)N(C)c3ccccc3)cc2)cc1 |  | inconclusive: 3.66 µM [activator, partial curve]
COC(=O)C1=C(C)NC(=O)C1(Nc1ccc(Cl)cn1)C(F)(F)F (stereo not drawn) | inconclusive: 7.05% | 
CC1CCN(CCc2nc3cc(NC(=O)COc4ccccc4)ccc3n2C)CC1 | inconclusive: 263% | 
COc1cc(-c2nnc(-c3ccco3)o2)ccc1OCc1ccccc1 | inconclusive: -18% | 
Cc1c(C(=O)OCC(=O)NC2CC2)oc2ccc(Br)cc12 | inconclusive | 
Cc1ccc(NC(=O)OCc2cncs2)cc1 | inconclusive: 13.9% | 
CSc1ccc(C(=O)C2CCCN(C(=O)c3nn(C)c(=O)c4ccccc34)C2)cc1 (stereo not drawn) | inconclusive: -42.5% | 
Cc1cc2ncn(/N=C/c3ccc4c(c3)OCO4)c2cc1C |  | inconclusive: 20.6 µM [falling, single point]
O=C(Nc1ccc(OC(F)(F)F)cc1)c1ccc2ccccc2n1 |  | inconclusive: 6.51 µM [activator, partial curve, poor fit]

Whole records, quoted from the list.
COC(=O)C1=C(C)NC(=O)C1(Nc1ccc(Cl)cn1)C(F)(F)F (stereo not drawn) reads lipid storage change, negative = inhibition: inconclusive: 7.05%
Cc1ccc(NC(=O)OCc2cncs2)cc1 reads lipid storage change, negative = inhibition: inconclusive: 13.9%

Further results.

SMILES | lipid storage change, negative = inhibition | Potency
CCCCNC(=O)c1cc2cc(CC)ccc2[nH]1 | inconclusive: 18.1% | 
Cc1ccc(-n2ncc3c2CCCC3NC(=O)CCc2cnn(C)c2)cc1C (stereo not drawn) |  | inconclusive: 29.1 µM [falling, partial curve, poor fit]
Cc1nn(Cc2ccc(F)cc2)c2sc(C(=O)Nc3nccs3)cc12 | inconclusive: -24.9% | 
COC(C(=O)N/N=C(\C)CC(=O)Nc1ccc(Cl)cc1C)c1ccccc1 (stereo not drawn) | inconclusive: 25.8% | 
CCOc1cc(CNc2ncnc3nc[nH]c23)ccc1OC | inconclusive: 14.3% | 
C=CCNc1cc(C(F)(F)F)nc(-c2ccccn2)n1 |  | inconclusive: 0.0231 µM [activator, full curve, poor fit]
CCN(CC)c1ccc(/C=N/N2CCN(Cc3ccccc3Cl)CC2)c(O)c1 |  | inconclusive: 29.1 µM [falling, single point]
O=[N+]([O-])c1ccccc1S(=O)(=O)N1CCCc2ccccc21 |  | inconclusive: 29.1 µM [falling, single point]
CCOc1ccc(S(=O)(=O)N(CC(=O)N2CCc3ccccc32)Cc2ccco2)cc1 |  | inconclusive: 0.0082 µM [activator, full curve, poor fit]
O=C(O)CSCC(=O)N1CCCN(c2nccc(C(F)(F)F)n2)CC1 | inconclusive: -24% | 
CC(NC(=O)c1ccc2c(=O)n3c(nc2c1)CCCCC3)c1ccccc1 (stereo not drawn) |  | inconclusive: 29.1 µM [falling, partial curve, poor fit]
CCCCn1c(SCC(=O)N2CCCC2)nc2c1c(=O)n(C)c(=O)n2C | inconclusive: -12.1% | 
Cc1c(C(=O)NC(C)C)c(-c2ccccc2)nn1-c1ccccc1 | inactive | 
COC(=O)C1=C(C)N(c2cc(Cl)cc(Cl)c2)C(=O)C1 |  | inconclusive: 0.116 µM [activator, full curve, poor fit]
Cc1sc(NC(=O)CSc2nnc(-c3ccccc3)o2)c(C#N)c1C |  | inconclusive: 0.517 µM [activator, full curve]
COc1ccc(CCNC(=O)CSc2nnc(-c3ccccc3)c3ccccc23)cc1OC |  | inconclusive: 14.6 µM [cytotoxic, partial curve]
COc1ccc(OC2C(=O)N(c3ccc(C)c(C)c3)C2c2ccc(OC)c(OC)c2)cc1 (stereo not drawn) | inconclusive: -30% | 
O=C(COC(=O)c1cnccn1)NCc1ccc2c(c1)OCO2 | inconclusive: 2.02% | 
CCC(Sc1ccc(Cl)cc1)C(=O)Nc1nnc(-c2cccc([N+](=O)[O-])c2)s1 (stereo not drawn) | inconclusive: 36% | 
CC1CCCCN1C(=O)C12CCC(C)(C(=O)C1)C2(C)C (stereo not drawn) |  | inconclusive: 0.58 µM [falling, full curve]
O=c1[nH]c(=O)n(Cc2ccc(Oc3ccccc3)cc2)cc1Br |  | active: 18.4 µM
COc1ccc(Cl)cc1NC(=O)Cn1nc(-c2ccc(C)cc2)n(C)c1=S | inconclusive: 0.351% | 
COc1cc(C(=O)Nc2ccc(S(=O)(=O)N(C)c3ccccc3)cc2)cc(OC)c1OC |  | inconclusive: 29.1 µM [falling, single point]
CNC(=O)c1ccc(NC(=O)CC23CC4CC(CC(C4)C2)C3)cc1 | inactive | 
